Experimental data taken from PubChem BioAssay AID504467 (National Center for Advancing Translational Sciences (NCATS), 2011).
In all, about 330,000 compounds went through this assay and about 7,700 (2.3%) were called active. This list was built around the results that the source calls inconclusive (neither active nor inactive); the mix of calls is not that of the screen. Calls follow the shape of the dose curve; as a rule, active = well fitted inhibition curve with a large enough effect; inconclusive = small, poorly fitted or top-dose-only effect, or effect the other way; inactive = flat fitted curve, though single readings scatter. Potencies of inconclusive entries are doubtful fits and often do not repeat.

Test: qHTS screen for small molecules that inhibit ELG1-dependent DNA repair in human embryonic kidney (HEK293T) cells expressing luciferase-tagged ELG1; also: nearly all actives have a fitted effect of over 55% in size
Settings: HEK293T ELG1-luciferase reporter, luminescence, 16 h, DNA damage induced by 5-fluorouridine; activity change, negative = inhibition: at 46.1 µM (top of the series)
How it was run: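 Reporter activity after DNA damage by 5-fluorouridine is monitored. Compound-treated cells incubate 16 hr at 37 °C, then ONE-Glo is added for 30 min before luminescence reading.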
% is scaled to controls: 0 for no effect and ±100 for the full control effect; potency is read from the fitted curve at half-maximal effect.

Question: Which Potency does the source give for NC(=S)N/N=C\c1c2ccccc2cc2ccccc12 here?
Answer: inconclusive: 29.1 µM [inhibitor, single point]

Question: Which Potency does the source give for Cc1ccc(NC(=O)c2csc(-c3ccccc3)c2C)cc1 here?
Answer: inconclusive: 0.411 µM [activator, full curve]

Question: For CCCCCCCn1c2c(c(=N)c3ccccc31)CCC2, which Potency is on record?
Answer: active: 4.11 µM

Question: Which activity change, negative = inhibition does the source give for COc1ccc(C(=O)OCCOc2cccc(Cl)c2)cc1S(=O)(=O)N1CCOCC1 here?
Answer: inconclusive: 49.6% [activator]

Question: Which “activity change, negative = inhibition” value does the source give for CC(=O)c1oc2ccccc2c1NC(=O)CN1CCCCC1 here?
Answer: inactive: -9.07%

Question: For NC(=O)NCC(=O)N1CCC(C(O)(c2ccccc2)c2ccccc2)CC1, which “activity change, negative = inhibition” value is on record?
Answer: inactive: 3.92%

Question: With CCOC(=O)c1[nH]c2ccc(OC)cc2c1NC(=S)N1CCN(c2ccccc2OC)CC1 as the compound, how does the Potency read?
Answer: active: 7.31 µM

Question: Which Potency does the source give for O=C(Nc1cccc2ccccc12)c1ccccc1 here?
Answer: inconclusive: 23.1 µM [activator, partial curve]

Question: With Cc1ccc(/C=C/C(=O)OCC(=O)N(CC(C)C)c2c(N)n(Cc3ccccc3)c(=O)[nH]c2=O)o1 as the compound, how does the “activity change, negative = inhibition” value read?
Answer: inactive: -3.47%

Question: Which Potency does the source give for C#Cc1cccc(-n2nnc(C(=O)OC)c2-c2ccccc2)c1 here?
Answer: inconclusive: 23.1 µM [inhibitor, single point]

Question: For CN(C)CCCN(C(=O)c1ccc2c(c1)OCCO2)c1nc2ccc(Cl)cc2s1, which “activity change, negative = inhibition” value is on record?
Answer: inactive: 18.8%

Question: Which Potency does the source give for Cn1c(CCN2CCN(c3ccc(F)cc3)CC2)nc2cc(NC(=O)c3ccco3)ccc21 here?
Answer: inconclusive: 23.1 µM [inhibitor, partial curve]

Question: Which “activity change, negative = inhibition” value does the source give for O=C(OCc1cccc(Cl)c1)c1cc([N+](=O)[O-])ccc1N1CCOCC1 here?
Answer: inactive: -17.5%

Question: With CSc1ncc(CN2CCCC(C(=O)Nc3ccc(-c4ccco4)cc3)C2)cn1 (centres undefined) as the compound, how does the “activity change, negative = inhibition” value read?
Answer: inactive: 2.34%

Question: For Cc1cccc(C(=O)Oc2ccc(/C=N/O)cc2)c1, which Potency is on record?
Answer: inconclusive: 9.2 µM [activator, partial curve]

Question: For Cc1cccc(CC2CC(=O)N(c3ccc(C)cc3Br)C2=O)c1 (centres undefined), which “activity change, negative = inhibition” value is on record?
Answer: inactive: -12.6%

Question: For O=C(Nc1ccc2[nH]ncc2c1)c1ccccc1Br, which Potency is on record?
Answer: inconclusive: 2.59 µM [activator, full curve]

Question: With O=C(CN1C(=O)NC2(CCCCC2)C1=O)Oc1ccc2ccc(=O)oc2c1 as the compound, how does the Potency read?
Answer: inconclusive: 1.16 µM [inhibitor, single point]

Question: Which “activity change, negative = inhibition” value does the source give for Cc1cc(C)c(NC(=O)Nc2ccccc2)c(C)n1 here?
Answer: inactive: 0.254%

Question: With COCCNC(=O)c1ccc(Cn2c(=S)[nH]c3cc4c(cc3c2=O)OCO4)cc1 as the compound, how does the Potency read?
Answer: inconclusive: 16.4 µM [activator, single point]

Question: Which Potency does the source give for COC(=O)[C@H](CC(C)C)NC(=O)CCc1nnc(COc2ccccc2)o1 here?
Answer: inconclusive: 16.4 µM [activator, partial curve, poor fit]

Question: Which “activity change, negative = inhibition” value does the source give for CC(C)Sc1nc2sc(-c3ccccc3)cc2c(=O)n1N here?
Answer: inactive: 18.3%

Question: For O=C(CCn1c(=O)sc2ccccc21)NCc1ccc2c(c1)OCO2, which Potency is on record?
Answer: inconclusive: 16.4 µM [activator, single point]

Question: With O=C(Nc1ccccc1)c1ccc(-c2ccc([N+](=O)[O-])cc2)o1 as the compound, how does the Potency read?
Answer: inconclusive: 13 µM [activator, partial curve]

Question: With Cc1ccc(NC(=O)CN2CCc3ccccc3C2)cc1S(=O)(=O)N(C)C as the compound, how does the Potency read?
Answer: inconclusive: 20.6 µM [inhibitor, single point]

Question: For COc1cc(-n2nnnc2SCC(=O)N2CCN(c3ccc(F)cc3)CC2)c(OC)cc1Cl, which Potency is on record?
Answer: inconclusive: 11.6 µM [inhibitor, partial curve, poor fit]

Question: For COc1ccc(C(=O)/C=C\N2CCOCC2)cc1, which Potency is on record?
Answer: inconclusive: 18.4 µM [activator, single point]

Question: With O=C(CCCN1C(=O)/C(=C/c2ccccc2)SC1=S)Nc1cccc(O)c1 as the compound, how does the Potency read?
Answer: inconclusive: 29.1 µM [inhibitor, single point]

Question: With Cc1ccc(OCCN2C(=O)c3ccccc3C2=O)c(C)c1 as the compound, how does the “activity change, negative = inhibition” value read?
Answer: inactive: 28.7%

Question: With O=C1C(c2ccc(F)cc2)N(Cc2ccc3c(c2)OCO3)C(=O)CN1C1CCCCC1 (centres undefined) as the compound, how does the “activity change, negative = inhibition” value read?
Answer: inactive: -5.39%

Question: For CCc1noc(C)c1C(=O)Nc1cc(Cl)ccc1N1CCOCC1, which Potency is on record?
Answer: inconclusive: 25.9 µM [inhibitor, single point]

Question: For CSc1nc(N)c(C(=O)Nc2ccc([N+](=O)[O-])cc2)s1, which “activity change, negative = inhibition” value is on record?
Answer: inactive: 9.24%

Question: For CCCC(=O)Oc1ccc(C2NC(=O)c3ccccc3O2)cc1 (centres undefined), which Potency is on record?
Answer: inconclusive: 35.5 µM [inhibitor, single point]

Question: With Cc1cccc(NS(=O)(=O)c2c(C(=O)N3CCCC3)c(C)n(C)c2C)c1 as the compound, how does the “activity change, negative = inhibition” value read?
Answer: inactive: 14.3%

Question: With CCN(Cc1cnn(C)c1)Cc1nc(Cc2ccccc2Cl)no1 as the compound, how does the Potency read?
Answer: inconclusive: 20.6 µM [activator, partial curve, poor fit]

Question: For COc1ccc(NC(=O)CC2C(=O)N(C)C(=S)N2CCc2ccc(F)cc2)cc1 (centres undefined), which Potency is on record?
Answer: inconclusive: 16.4 µM [inhibitor, single point]

Question: For O=C(Nc1cccc(Cl)c1)NC1CC2CCC(C1)N2Cc1cccs1 (centres undefined), which “activity change, negative = inhibition” value is on record?
Answer: inactive: 2.57%

Question: With Cc1ccc(C2C=C(c3ccccc3OC(F)F)Nc3ncnn32)cc1 (centres undefined) as the compound, how does the “activity change, negative = inhibition” value read?
Answer: inactive: -10.1%

Question: For COc1ccc2nc(/N=C/c3c(C)[nH]n(-c4ccc(C)cc4)c3=O)sc2c1, which Potency is on record?
Answer: inconclusive: 20.6 µM [activator, partial curve]

Question: Which “activity change, negative = inhibition” value does the source give for CCN(CC)C(=O)Cn1cc(C(=O)C(=O)N2CCN(c3ccc(OC)cc3)CC2)c2ccccc21 here?
Answer: inactive: -0.612%

Question: For COc1ccc(Nc2oc(COc3ccc(C)cc3)nc2C#N)cc1, which Potency is on record?
Answer: inconclusive: 32.6 µM [inhibitor, partial curve, poor fit]

Question: With Cc1nc(C)c(/C(O)=C/c2nc3ccccc3oc2=O)s1 as the compound, how does the “activity change, negative = inhibition” value read?
Answer: inactive: -0.625%

Question: For Cc1ccc(S(=O)(=O)c2c(C)nn(C(C)(C)C)c2OC(=O)c2ccco2)cc1, which Potency is on record?
Answer: inconclusive: 18.4 µM [inhibitor, single point]

Question: For CCCCOC(=O)/C=C\C(=O)NC(N)=O, which “activity change, negative = inhibition” value is on record?
Answer: inactive: 9.93%

Question: Which Potency does the source give for CCOC(=O)N1CCN(C(=O)COc2cccc3c2CCN(Cc2ccc(F)cc2)C3=O)CC1 here?
Answer: active: 20.6 µM

Question: For Cc1ccc(NC(=O)c2sc3nc(N4CCOCC4)c4c(c3c2N)CC(C)(C)OC4)cc1, which Potency is on record?
Answer: inconclusive: 0.651 µM [inhibitor, full curve, poor fit]

Question: With O=C(Cn1ncc2c3ccccc3n(Cc3ccccc3F)c2c1=O)N1CCN(c2ccccn2)CC1 as the compound, how does the Potency read?
Answer: inconclusive: 16.4 µM [inhibitor, partial curve, poor fit]

Question: With C=CCC1(CC=C)CCCN1C(=O)c1cc(COc2ccccc2SC)on1 as the compound, how does the Potency read?
Answer: inconclusive: 20.6 µM [inhibitor, single point]

Question: With COc1cccc(OCCSc2nc(N)cc(N)n2)c1 as the compound, how does the “activity change, negative = inhibition” value read?
Answer: inactive: -4.58%

Question: With Cn1cnnc1SCC(=O)NC1CC1 as the compound, how does the “activity change, negative = inhibition” value read?
Answer: inactive: 0.0354%

Question: With O=C(c1ccc2c(c1)OCCO2)C1CCN(C(=O)c2ccc(F)c(F)c2)CC1 as the compound, how does the Potency read?
Answer: inconclusive: 12.6 µM [inhibitor, partial curve]

Question: Which “activity change, negative = inhibition” value does the source give for COc1cc(CNCc2ccccn2)ccc1OCC(=O)NC1CCCCC1 here?
Answer: inactive: 6.76%

Question: With COc1ccc(CCCC(=O)NCCc2ccccc2)c(C)c1 as the compound, how does the “activity change, negative = inhibition” value read?
Answer: inactive: -1.52%

Question: For Nc1ccc(NC(=O)Nc2ccc(N)cc2)cc1, which Potency is on record?
Answer: inconclusive: 20.6 µM [activator, single point]

Question: For CN1/C(=C\C=Nc2ccc3ccccc3c2)C(C)(C)c2ccccc21, which “activity change, negative = inhibition” value is on record?
Answer: inactive: 12.9%

Question: Which Potency does the source give for CN1CCN(C(=O)c2cnn3c(C(F)(F)F)cc(-c4cccs4)nc23)CC1 here?
Answer: active: 5.8 µM

Question: For COc1ccc(Cn2nnnc2C(CC(C)C)N2CCC(C(N)=O)CC2)cc1 (centres undefined), which Potency is on record?
Answer: inconclusive: 20.6 µM [activator, partial curve]

Question: With COc1cc2c(cc1OC)CN(Cc1ccc(C)cc1)CC2 as the compound, how does the “activity change, negative = inhibition” value read?
Answer: inactive: -13.1%

Question: With CN1CCN(c2ccc(CNS(=O)(=O)c3ccc(Cl)cc3)cc2)CC1 as the compound, how does the “activity change, negative = inhibition” value read?
Answer: inactive: -2.12%

Question: With CCCC(C(=O)NCc1ccc(OC)cc1)N(Cc1ccco1)C(=O)c1snc(C(N)=O)c1N (centres undefined) as the compound, how does the Potency read?
Answer: inconclusive: 25.9 µM [inhibitor, partial curve, poor fit]

Question: For Cc1cccc(NS(=O)(=O)c2ccc(C(=O)N3CC(C)OC(C)C3)cc2)c1C (centres undefined), which Potency is on record?
Answer: inconclusive: 16.4 µM [inhibitor, partial curve]

Question: Which “activity change, negative = inhibition” value does the source give for CCOC(=O)C(=O)Nc1nccs1 here?
Answer: inactive: 2.97%

Question: For Cc1ccc(S(=O)(=O)N2CCN(C(=O)C(C)Cn3nc(C)c(C)c3C)CC2)cc1C (centres undefined), which “activity change, negative = inhibition” value is on record?
Answer: inactive: 0.224%

Question: Which Potency does the source give for COc1cccc(-n2c(CN3CCN(Cc4ccccc4)CC3)nc3ccc([N+](=O)[O-])cc3c2=O)c1 here?
Answer: inconclusive: 16.4 µM [inhibitor, partial curve]

Question: Which Potency does the source give for Cc1cc(NC(=O)c2cc(CC(C)C)on2)no1 here?
Answer: inconclusive: 20.6 µM [activator, partial curve]

Question: Which “activity change, negative = inhibition” value does the source give for CCOc1ccccc1NC(=O)Nc1ccc(Cl)cc1 here?
Answer: inactive: 18.8%

Question: For C[C@H](NC(=O)OC(C)(C)C)C(=O)NCC1CCC(C(=O)N[C@@H](Cc2ccccc2)C(=O)O)CC1 (some centres undefined), which Potency is on record?
Answer: inconclusive: 29.1 µM [activator, single point]

Question: Which Potency does the source give for O=C(CNS(=O)(=O)c1ccc2ccccc2c1)OCc1csc(-c2ccccc2)n1 here?
Answer: inconclusive: 29.1 µM [activator, single point]

Question: For COc1ccc(CCC(=O)NCCS(=O)(=O)N2CCN(c3ccccc3OC)CC2)cc1, which Potency is on record?
Answer: inconclusive: 29.1 µM [inhibitor, single point]

Question: For CC1CCCCN1C(=O)CN1C(=O)c2ccccc2S1(=O)=O (centres undefined), which Potency is on record?
Answer: inconclusive: 23.1 µM [activator, partial curve]

Question: Which Potency does the source give for O=C(NNC(=O)C1CC2CCC1C2)c1sc2ccccc2c1Cl (centres undefined) here?
Answer: inconclusive: 8.2 µM [activator, partial curve]

Question: Which Potency does the source give for COCC(=O)N(Cc1cc2cc(OC)ccc2[nH]c1=O)c1ccccc1OC here?
Answer: inconclusive: 13 µM [activator, partial curve, poor fit]

Question: With NC(=O)COc1ccc(Nc2nnc(-c3ccc(O)cc3)c3ccccc23)cc1 as the compound, how does the Potency read?
Answer: inconclusive: 10.3 µM [inhibitor, partial curve, poor fit]

Question: With COC(=O)CSC1=C(C#N)C(c2ccccc2)CC(=O)N1 (centres undefined) as the compound, how does the Potency read?
Answer: inconclusive: 14.6 µM [inhibitor, partial curve]
